The list is a part of this screen's results and no random one: it gathers tests that were run many times, whatever their T/C, doses with no T/C, and many T/C values between a quarter and a half above the control. Further doses and runs are listed elsewhere. T/C gives the treated animals as a percentage of the vehicle group. Some entries give survivors of the animals treated and no T/C: the source files T/C as zero there, which appears to mark a toxic dose or a test without result, not a measured value. Some doses without a T/C left all or most animals alive at the check, yet need not have been tolerated: the source hardly ever lists a survival T/C far under the control, and the zero likely stands for such cases as well. Counts of survivors are from the toxicity check (mostly the fifth day) where no day follows; animals may have died later. Schedule codes are those of the source, read here as Q, the interval in days (D) or hours (H), X, the number of doses. Some entries were tested several times; the values are given in rising order. Where survival is the endpoint, this PubChem deposit counts one and a half times the control or more as active, and values a quarter to a half above the control carry no call in these data; other NCI protocols may use other cut-offs. Some T/C values are followed by the survivors on the day toxicity was checked, most often the fifth; where none is given, no animal had died by that day.
System: B6C3F1 mice, B16 melanoma ip, median survival T/C
Assay: NCI In Vivo Anticancer Drug Screen. Data for tumor model B16 Melanoma (intraperitoneal) in B6C3F1 mice
Details: T/C endpoint: median survival time, higher T/C = longer survival
How it was run: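 Readout: survival or tumor size in treated mice relative to vehicle controls (T/C). Model uses transplantable tumors grown in mice.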

[1] = dose: 5.0 mg/kg/injection, schedule: Q01DX009 (ip), vehicle: water
[2] = dose: 10.0 mg/kg/injection, schedule: Q01DX009 (ip), vehicle: water
[3] = dose: 200.0 mg/kg/injection, schedule: Q01DX009 (ip), vehicle: saline with Tween-80
[4] = dose: 400.0 mg/kg/injection, schedule: Q01DX009 (ip), vehicle: saline with Tween-80
[5] = dose: 100.0 mg/kg/injection, schedule: Q01DX009 (ip), vehicle: saline
[6] = dose: 6.25 mg/kg/injection, schedule: Q01DX009 (ip), vehicle: saline with Tween-80
[7] = dose: 12.5 mg/kg/injection, schedule: Q01DX009 (ip), vehicle: saline with Tween-80
[8] = dose: 25.0 mg/kg/injection, schedule: Q01DX009 (ip), vehicle: saline with Tween-80
[9] = dose: 25.0 mg/kg/injection, schedule: Q01DX001 (ip), vehicle: water
[10] = dose: 200.0 mg/kg/injection, schedule: Q01DX009 (ip), vehicle: saline

`CCOC(=O)C(CC(C)C)NC(=O)C(N)Cc1ccc(N(CCCl)CCCl)cc1` (stereo not given) was tested, and the T/C (dose: 2.5 mg/kg/injection, schedule: Q01DX009 (ip), vehicle: water) was 125 % of control, the T/C [1] was 111 [9 of 10 alive], 133, 157 % of control and the survivor count [1] was 9 of 10. The T/C [2] was 168, 174, 197 % of control, the survivor count [2] was 6 of 10 and the survivor count (dose: 20.0 mg/kg/injection, schedule: Q01DX009 (ip), vehicle: water) was 0 of 10, 8 of 10, 9 of 10, 10 of 10. The survivor count (dose: 40.0 mg/kg/injection, schedule: Q01DX009 (ip), vehicle: water) was 0 of 10 and 9 of 10 and the survivor count (dose: 80.0 mg/kg/injection, schedule: Q01DX009 (ip), vehicle: water) was 0 of 10.
`CC(Br)C(=O)NC(Cc1ccccc1)C(=O)O` (stereo not given) was tested, and the survivor count (dose: 100.0 mg/kg/injection, schedule: Q01DX009 (ip), vehicle: saline with Tween-80) was 10 of 10, the survivor count [3] was 10 of 10 and the survivor count [4] was 10 of 10.
`[Cl][Sn]([c]1ccccc1)[c]1ccccc1` was tested, and the survivor count (dose: 12.5 mg/kg/injection, schedule: Q01DX009 (ip), vehicle: saline) was 4 of 10, the survivor count (dose: 25.0 mg/kg/injection, schedule: Q01DX009 (ip), vehicle: saline) was 1 of 10 and the survivor count (dose: 50.0 mg/kg/injection, schedule: Q01DX009 (ip), vehicle: saline) was 0 of 10 and 4 of 10. The survivor count [5] was 0 of 10.
`NC(=O)/C=C/C(=O)c1c(Cl)cccc1Cl` was tested, and the survivor count [6] was 10 of 10, the survivor count [7] was 7 of 10 and the survivor count [8] was 2 of 10.
With `COc1cccc2c1C(=O)c1c(O)c3c(c(O)c1C2=O)C[C@@](O)(C(C)=O)C[C@@H]3OC1CC(N2CCCCC2)C(O)C(C)O1` (stereo not given in full) the T/C (dose: 6.25 mg/kg/injection, schedule: Q01DX001 (ip), vehicle: water) was 127 and 138 % of control, the survivor count (dose: 12.5 mg/kg/injection, schedule: Q01DX001 (ip), vehicle: water) was 10 of 10 and the survivor count [9] was 7 of 10.
With `O=P(O)(NCCCl)NCCCl` the T/C (dose: 50.0 mg/kg/injection, schedule: Q01DX001 (ip), vehicle: saline with Tween-80) was 136 % of control and the survivor count (dose: 400.0 mg/kg/injection, schedule: Q01DX001 (ip), vehicle: saline with Tween-80) was 6 of 10 on day 9 and 10 of 10 on day 9.
`CN(C)N=Nc1ccc(C(N)=O)cc1` was tested, and the T/C (dose: 7.5 mg/kg/injection, schedule: Q01DX009 (ip), vehicle: saline with Tween-80) was 125 % of control and the survivor count (dose: 161.0 mg/kg/injection, schedule: Q01DX009 (ip), vehicle: saline with Tween-80) was 10 of 10.
With `ClC(Cl)(Cl)Sn1cccn1` the survivor count [7] was 6 of 6, the survivor count [5] was 9 of 10 and the survivor count [10] was 6 of 10.
In the case of `COc1cccc2c1C(=O)c1c(O)c3c(c(O)c1C2=O)C[C@](O)(C(=O)CO)CC3OC1CC(N)C(OC2CCCCO2)C(C)O1` (stereo not given in full), the T/C (dose: 1.56 mg/kg/injection, schedule: Q01DX001 (ip), vehicle: water) was 129 % of control, the survivor count (dose: 3.0 mg/kg/injection, schedule: Q01DX009 (ip), vehicle: water) was 10 of 10 and the survivor count (dose: 6.0 mg/kg/injection, schedule: Q01DX009 (ip), vehicle: water) was 9 of 10. For the same molecule, the survivor count (dose: 6.25 mg/kg/injection, schedule: Q01DX009 (ip), vehicle: water) was 9 of 10, the survivor count (dose: 12.0 mg/kg/injection, schedule: Q01DX009 (ip), vehicle: water) was 4 of 10 and the survivor count (dose: 12.5 mg/kg/injection, schedule: Q01DX009 (ip), vehicle: water) was 6 of 10. The survivor count (dose: 24.0 mg/kg/injection, schedule: Q01DX009 (ip), vehicle: water) was 0 of 9, the T/C [9] was 148 % of control and the survivor count [9] was 10 of 10. For the same molecule, the survivor count (dose: 25.0 mg/kg/injection, schedule: Q01DX009 (ip), vehicle: water) was 2 of 10, the survivor count (dose: 50.0 mg/kg/injection, schedule: Q01DX001 (ip), vehicle: water) was 0 of 10 and the survivor count (dose: 50.0 mg/kg/injection, schedule: Q01DX009 (ip), vehicle: water) was 0 of 10. The survivor count (dose: 100.0 mg/kg/injection, schedule: Q01DX009 (ip), vehicle: water) was 0 of 10.
For `COc1cc2c(cc1O)N=C[C@@H]1CCC(O)N1C2=O` (mixture of isomers), the survivor count (dose: 8.0 mg/kg/injection, schedule: Q01DX009 (ip), vehicle: saline) was 8 of 10 and the survivor count (dose: 16.0 mg/kg/injection, schedule: Q01DX009 (ip), vehicle: saline) was 1 of 10 and 2 of 10.
With `CCOC(=O)Nc1cc2c(c(N)n1)N=C(c1ccc(Cl)cc1Cl)CN2` the T/C (dose: 3.0 mg/kg/injection, schedule: Q01DX009 (ip), vehicle: saline with Tween-80) was 127 % of control, the T/C (dose: 3.12 mg/kg/injection, schedule: Q01DX009 (ip), vehicle: saline with Tween-80) was 125 % of control and the T/C (dose: 6.0 mg/kg/injection, schedule: Q01DX009 (ip), vehicle: saline with Tween-80) was 125 % of control. For the same molecule, the T/C [6] was 148 % of control, the T/C (dose: 12.0 mg/kg/injection, schedule: Q01DX009 (ip), vehicle: saline with Tween-80) was 126 and 139 % of control and the survivor count (dose: 24.0 mg/kg/injection, schedule: Q01DX009 (ip), vehicle: saline with Tween-80) was 10 of 10. The survivor count [8] was 8 of 10 and the survivor count (dose: 50.0 mg/kg/injection, schedule: Q01DX009 (ip), vehicle: saline with Tween-80) was 2 of 10.
`CC(C)(C)NC(C1=CC(C)(C)c2ccccc2C1=O)c1ccccc1` (stereo not given) was tested, and the survivor count (dose: 400.0 mg/kg/injection, schedule: Q01DX009 (ip), vehicle: Klucel (hydroxypropylcellulose) (HPC)) was 3 of 10.
In the case of `Cc1ccc(C)c2c1CCC2C` (stereo not given), the survivor count [3] was 10 of 10.
`CCC1=C[C@H]2CN(CCc3c([nH]c4ccccc34)[C@@](OC(C)=O)(c3cc4c(cc3OC)N(C)[C@H]3[C@@](O)(C(=O)NCCSc5ccccc5)[C@H](O)[C@]5(CC)C=CCN6CC[C@]43[C@@H]65)C2)C1` was tested, and the T/C (dose: 0.5 mg/kg/injection, schedule: Q01DX009 (ip), vehicle: water) was 132 % of control and the T/C (dose: 4.0 mg/kg/injection, schedule: Q01DX009 (ip), vehicle: water) was 145 % of control.
`CN1CCN(c2ccc([N+](=O)[O-])c3no[n+]([O-])c23)CC1` was tested, and the T/C (dose: 10.0 mg/kg/injection, schedule: Q01DX009 (ip), vehicle: saline with Tween-80) was 139 % of control, the survivor count (dose: 40.0 mg/kg/injection, schedule: Q01DX009 (ip), vehicle: saline with Tween-80) was 9 of 10 and the survivor count (dose: 80.0 mg/kg/injection, schedule: Q01DX009 (ip), vehicle: saline with Tween-80) was 5 of 10.
With `CC(C)(C)OC(=O)N1CCCC1C(=O)N1CCCC1C(=O)Oc1ccccc1` (stereo not given) the survivor count [4] was 6 of 10.
For `Cc1cc(Br)c2nsnc2c1[N+](=O)[O-]`, the survivor count [4] was 5 of 10.
For `COC1C(CO)OC(n2c3c(Cl)cccc3c3c4c(c5c6cccc(Cl)c6[nH]c5c32)C(=O)NC4=O)C(O)C1O` (stereo not given), the T/C (dose: 12.5 mg/kg/injection, schedule: Q01DX009 (ip), vehicle: distilled water + Tween-80) was 125 and 132 % of control, the T/C (dose: 25.0 mg/kg/injection, schedule: Q01DX009 (ip), vehicle: distilled water + Tween-80) was 127 and 135 % of control and the T/C (dose: 50.0 mg/kg/injection, schedule: Q01DX009 (ip), vehicle: distilled water + Tween-80) was 136, 141, 144 % of control. For the same molecule, the T/C (dose: 100.0 mg/kg/injection, schedule: Q01DX009 (ip), vehicle: distilled water + Tween-80) was 135 % of control [9 of 10 alive], the T/C (dose: 200.0 mg/kg/injection, schedule: Q01DX009 (ip), vehicle: distilled water + Tween-80) was 141 and 144 % of control and the survivor count (dose: 400.0 mg/kg/injection, schedule: Q01DX009 (ip), vehicle: distilled water + Tween-80) was 9 of 10.
For `NC(CS)C(=O)O` (stereo not given), the T/C [10] was 146 % of control.
For `[O-][n+]1c(CN2CCCCC2)nc2cccc3c2c1-c1ccccc1-3`, the survivor count [3] was 10 of 10.
In the case of `O=C(CCl)NC(Cc1ccc(O)cc1)C(=O)O` (stereo not given), the survivor count [8] was 10 of 10 and the survivor count [3] was 10 of 10.

From PubChem BioAssay AID200 (DTP/NCI, 2004)
